Experimental data from patent publication US6969702B2, “Compounds and methods for increasing neurogenesis” (priority 2002, dated 2005).
For at least one compound, name, drawing or mass did not settle the structure. Marks after values point to notes of the source that are not given here. Square brackets hold non-standard residues; d marks the D form. Peptide text beside a SMILES is read from it.

Experiments:
[1] = test system: mouse adult neural stem cells; experiment: ATP-assay: proliferation (ATP levels) of neurosphere-derived cells; settings: for Fold Induction ATP: vs vehicle
[2] = test system: cAMP activation in mouse adult neural stem cells; experiment: cAMP detection (HitHunter EFC Cyclic AMP Chemiluminescence Assay); settings: Table 2, vs vehicle

| SMILES | Fold Induction cAMP ([2]; 1 nM) | Fold Induction ATP ([1]; Table 2, 100 nM, 4 days) | also measured |
| --- | --- | --- | --- |
| CC[C@H](C)[C@H](NC(=O)[C@H](CCC(N)=O)NC(=O)[C@H](Cc1c[nH]cn1)NC(=O)[C@H](C)NC(=O)[C@@H](N)CC(C)C)C(=O)N[C@@H](Cc1ccc(O)cc1)C(=O)N[C@@H](CCC(N)=O)C(=O)N[C@@H](Cc1ccccc1)C(=O)N[C@H](C(=O)N[C@@H](CC(=O)O)C(=O)N[C@@H](CCCCN)C(=O)N[C@@H](CC(=O)O)C(=O)N[C@@H](CCCCN)C(=O)N[C@@H](CC(=O)O)C(=O)N[C@@H](CC(N)=O)C(=O)N[C@H](C(=O)N[C@@H](C)C(=O)N1CCC[C@H]1C(=O)N[C@@H](CCCNC(=N)N)C(=O)N[C@@H](CO)C(=O)N[C@@H](CCCCN)C(=O)N[C@H](C(=O)N[C@@H](CO)C(=O)N1CCC[C@H]1C(=O)N[C@@H](CCC(N)=O)C(=O)NCC(=O)N[C@@H](Cc1ccc(O)cc1)C(N)=O)[C@@H](C)CC)C(C)C)[C@@H](C)O [Adrenomedullin (26-52)] (H-LAHQIYQFTDKDKDNVAPRSKISPQGY-NH2; N-terminus and C-terminus assumed) | 1.6* fold | – | Fold Induction ATP ([1]; Table 2, 1 nM, 4 days): 1.5** fold |
| C=C[C@@]1(C)CC(=O)[C@]2(O)[C@@]3(C)[C@@H](O)CCC(C)(C)[C@@H]3[C@H](O)[C@H](OC(C)=O)[C@@]2(C)O1 [Forskolin, forskolin] | – | – | proliferation of neural stem cells ([1]; cAMP activators, GPCR-independent): increase |
| CC(C)C[C@H](NC(=O)[C@H](CC(C)C)NC(=O)[C@@H](Cc1c[nH]c2ccccc12)NC(=O)[C@H](Cc1ccccc1)NC(=O)[C@@H](Cc1c[nH]c2ccccc12)NC(=O)[C@H](CCC(N)=O)NC(=O)[C@H](CCC(N)=O)NC(=O)[C@@H]1CCCN1C(=O)[C@H](CCCCN)NC(=O)[C@@H]1CCCN1C(=O)[C@@H](CCCNC(=N)N)NC(=O)[C@@H]1CCCN1C(=O)CNC(=O)[C@H](CC(C)C)NC(=O)[C@H](CC(C)C)NC(=O)[C@H](Cc1ccc(O)cc1)NC(=O)CNC(=O)[C@H](C)NC(=O)[C@H](CO)NC(=O)[C@H](CC(N)=O)NC(=O)[C@H](CC(C)C)NC(=O)[C@@H](NC(=O)[C@H](Cc1c[nH]c2ccccc12)NC(=O)CN)[C@@H](C)O)C(N)=O [Galanin (1-13)-Spantide-Amide, M40] (H-GWTLNSAGYLLGP[dR]PKPQQ[dW]F[dW]LL-NH2) | 1.4** (1 nM) fold | 1.1* fold | – |
| CC(C)C[C@H](NC(=O)CN(C)C(=O)[C@H](Cc1ccccc1)NC(=O)[C@H](Cc1ccccc1)NC(=O)[C@H](CCC(N)=O)NC(=O)[C@H](CCC(N)=O)NC(=O)[C@@H]1CCCN1C(=O)[C@H](CCCCN)NC(=O)[C@@H]1CCCN1C(=O)[C@@H](N)CCCNC(=N)N)C(=O)N[C@@H](CCS(C)(=O)=O)C(N)=O [[Sar9, Met (0)11]-Substance P] | – | 3.2*** fold | Fold Induction cAMP ([2]; 100 nM): 2.2* fold |
| CC(C)C[C@H](NC(=O)[C@H](CCCCN)NC(=O)CNC(=O)[C@H](CC(C)C)NC(=O)[C@@H](N)C(C)C)C(=O)N[C@@H](CO)C(=O)N[C@@H](CCC(N)=O)C(=O)N[C@@H](CCC(=O)O)C(=O)N[C@@H](CC(C)C)C(=O)N[C@@H](Cc1c[nH]cn1)C(=O)N[C@@H](CCCCN)C(=O)N[C@@H](CC(C)C)C(=O)N[C@@H](CCC(N)=O)C(=O)N[C@H](C(=O)N[C@@H](Cc1ccc(O)cc1)C(=O)N1CCC[C@H]1C(=O)N[C@@H](CCCNC(=N)N)C(=O)N[C@H](C(=O)N[C@@H](CC(N)=O)C(=O)N[C@H](C(=O)NCC(=O)N[C@@H](CO)C(=O)NCC(=O)N[C@H](C(=O)N1CCC[C@H]1C(N)=O)[C@@H](C)O)[C@@H](C)O)[C@@H](C)O)[C@@H](C)O (H-VLGKLSQELHKLQTYPRTNTGSGTP-NH2; N-terminus and C-terminus assumed) | – | – | Fold Induction ATP ([1]; Table 4, 100 nM): 1.5* fold |
